Results taken from US20170334995A1 (Boehringer Ingelheim, published 2017).
These are yes or no findings as the source states them, for the method shown. Some entries that bind do so weakly or less than the wild type.

Sequences of proteins named here, by UniProt entry; tags and fusion partners are left off. Residues count along the entry.
UniProt Q15116, residues 25-288: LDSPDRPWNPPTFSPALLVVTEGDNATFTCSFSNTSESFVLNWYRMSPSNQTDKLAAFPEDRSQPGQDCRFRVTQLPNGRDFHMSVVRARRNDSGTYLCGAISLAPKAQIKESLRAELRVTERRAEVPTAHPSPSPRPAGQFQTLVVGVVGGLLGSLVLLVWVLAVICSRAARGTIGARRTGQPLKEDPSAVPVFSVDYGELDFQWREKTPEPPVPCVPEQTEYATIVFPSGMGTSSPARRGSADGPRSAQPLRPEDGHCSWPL

Legend:
[1] = molecular target: human PD1 expressed on the surface of CHO cells (human) (UniProt Q15116); experiment: blocking assay on cells: biotin-labelled human PD-L1 binding to PD1-expressing CHO cells, Europium-streptavidin fluorescence, % inhibition against antibody concentration [B]
[2] = molecular target: human PD1 expressed on the surface of CHO cells (human) (UniProt Q15116); experiment: blocking assay on cells: biotin-labelled human PD-L2 binding to PD1-expressing CHO cells, Europium-streptavidin fluorescence, % inhibition against antibody concentration [E]

B1: PD1-3 (antibody, human IgG4 S228P, kappa, V domains shown)
VH: EVMLVESGGGLVQPGGSLRLSCTASGFTFSKSAMSWVRQAPGKGLEWVAYISGGGGDTYYSSSVKGRFTISRDNAKNSLYLQMNSLRAEDTAVYYCARHSNVNYYAMDYWGQGTLVTVSS
VL: EIVLTQSPATLSLSPGERATMSCRASENIDVSGISFMNWYQQKPGQAPKLLIYVASNQGSGIPARFSGSGSGTDFTLTISRLEPEDFAVYYCQQSKEVPWTFGQGTKLEIKR
notes: Humanized derivative of murine 77E11; the HC is IgG4 (Pro), kappa light chain; also called anti-PD1-3; representative anti-PD1 antibody of the invention
binding [1]: binds
binding [2]: binds
